These results are taken from PubChem BioAssay AID2685 (National Center for Advancing Translational Sciences (NCATS), 2010).

The other results are listed elsewhere or left out. Shown are side measurements of this screen, not its main read-out; they come without a call. Most of these compounds were active or inconclusive in the main read-out, so they are no random draw. Potencies come from curve fits of mixed quality, noted in brackets.

A short description of the experiment: qHTS Assay for Lipid Storage Modulators in Drosophila S3 Cells.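 For cell number change: cells counted by Cell Tracker Red CMTPX staining in the red channel.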 The following applies: BODIPY lipid droplet fluorescence, 18-24 h; for cell number change: measured here: cell count max response, cells fed with added oleic acid. The procedure, abridged:
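Drosophila S3 cells loaded with oleic acid (400 uM, as added) and compounds at several concentrations; lipid droplets imaged by 488-nm laser-scanning cytometry, 500–530 nm intensity and object ratio to cell channel. Percent activity normalized to 20 uM Triacsin C.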

[1] abbreviates: measured here: cell number channel AC50, cells fed with added oleic acid.
The mark [2] stands for this setting: measured here: lipid fluorescence (Fed channel) AC50, cells fed with added oleic acid.

In the case of `Cc1ccc(CNC(=O)CSc2nnc(CNC(=O)c3ccccc3)o2)cc1`, the cell number change is -48.7%. In addition, the AC50 under setting [1] is 11.2 µM [falling, single point]. Under setting [2], the AC50 is 12.6 µM [falling, partial curve].

Consider `CCOC(=O)C1=C(c2ccccc2)NC(=S)NC1c1ccc(Cl)cc1` (stereo unspecified), for which the cell number change was found to be 25.8%. Further, the AC50 under setting [1] is 0.92 µM [rising, full curve, poor fit]. For the same compound, the AC50 under setting [2] is 2.06 µM [rising, partial curve].

Regarding `N#C/C(=C\c1ccco1)c1nc2ccccc2s1`, the cell number change is -6.17%. Besides, the AC50 under setting [2] is 14.6 µM [falling, partial curve, poor fit].

`CC(C)c1nc(SCC(=O)c2ccc(F)cc2)c2ccccc2n1`: the cell number change turned out to be 4.13%. Further, under setting [2], the AC50 was 2.06 µM [rising, partial curve, poor fit].

Consider `COc1cc(C)ccc1OCCOCCOc1ccc(C)cc1[N+](=O)[O-]`, for which the cell number change was -35.9%. The AC50 under setting [1] was 32.6 µM [falling, single point]. Under setting [2], the AC50 is 14.6 µM [rising, single point].

For `COc1ccc(N2CCN(CCCNS(=O)(=O)c3c(C)noc3/C=C/N(C)C)CC2)cc1`, the cell number change was determined as 30.6%. Further, the AC50 under setting [1] was 32.6 µM [rising, single point].

In the case of `CCCn1c(CC)nc([N+](=O)[O-])c1S(=O)(=O)c1ccccc1`, the cell number change is -38%. Also, the AC50 under setting [1] was 16.4 µM [falling, single point]. Also, the AC50 under setting [2] is 9.2 µM [falling, partial curve].

In the case of `CCc1nnc(NC(=O)c2nc3nc(C)cc(C)n3n2)s1`, the cell number change is -15.6%. Moreover, the AC50 under setting [2] is 23.1 µM [falling, single point].

Consider `CC(C)CN(C(=O)c1cccc(S(=O)(=O)N2CCN(c3ccc(F)cc3)CC2)c1)C1CCS(=O)(=O)C1` (stereo unspecified), for which the cell number change is 92.5%. Besides, the half-maximal activity concentration (AC50) under setting [1] is 18.4 µM [rising, partial curve].

Turning to `CCOC(=O)c1ccc(Nc2nnc(C)c3ccccc23)cc1`, the cell number change is 20.6%. For the same compound, the AC50 under setting [1] is 1.3 µM [rising, full curve, poor fit].

For the compound `COCCCN1Cc2cccc(C(=O)O)c2C1=O`, the cell number change is 35.1%. Further, the AC50 under setting [1] is 0.103 µM [rising, full curve, poor fit].

On to `O=C(O)Cc1ccc2[nH]c3ccc(CC(=O)O)cc3c2c1`, for which the cell number change was found to be 16.4%. For the same compound, the AC50 under setting [2] was 29.1 µM [rising, single point].

Take `Nc1c(C(=O)O)nnn1Cc1ccccc1`: the cell number change is -44.5%. The AC50 under setting [1] is 11.6 µM [falling, partial curve, poor fit]. Besides, the AC50 under setting [2] was 16.4 µM [rising, partial curve, poor fit].

For `Cc1ccc(NC(=O)CN2C(=O)COc3ccc(S(=O)(=O)N4CCOCC4)cc32)cc1F`, the cell number change came out at 25.5%. In addition, under setting [2], the AC50 was 2.59 µM [rising, partial curve].

As for `O=C(c1ccc(COc2ccc(Cl)cc2)cc1)N1CCCCC1`, the cell number change came out at 24.3%. The AC50 under setting [1] is 0.184 µM [rising, full curve, poor fit].

`COc1ccc(/C=N/NC(=O)CCn2c3ccccc3c3ccccc32)cc1O`: the cell number change was -99.2%. Moreover, the AC50 under setting [1] is 23.1 µM [falling, single point].

Consider `O=C(NCCCN1CCOCC1)C1CCC(=O)N1C1CCCCC1` (stereo unspecified), for which the cell number change was found to be 1.46%. For the same compound, the AC50 under setting [2] is 0.00517 µM [falling, full curve, poor fit].

With `COc1ccc(NC(=O)N(Cc2ccc3c(c2)OCO3)C2CC(=O)N(c3ccc(OC)cc3)C2=O)cc1` (stereo unspecified), the cell number change came out at 45.8%. Further, the AC50 under setting [1] was 4.11 µM [rising, full curve]. Also, under setting [2], the AC50 was 6.51 µM [rising, single point].

As for `COc1ccccc1NC(NC(=O)c1ccco1)C(=O)c1ccccc1` (stereo unspecified), the cell number change was -1.41%. Besides, the AC50 under setting [2] is 0.366 µM [rising, full curve].

Turning to `COc1ccc(NC(=O)C2CCN(S(=O)(=O)c3ccc(C)cc3)CC2)cc1OC`, the cell number change is -6.52%.

For the compound `Cc1ccc(C2SCC(C(=O)O)N2C(=O)c2ccc(F)cc2)cc1` (stereo unspecified), the cell number change worked out at 1.11%. For the same compound, the AC50 under setting [2] is 14.6 µM [falling, single point].

For the compound `COc1cc(CNCc2ccco2)ccc1OCc1ccccc1`, the cell number change is 30.4%. In addition, the AC50 under setting [1] is 4.11 µM [rising, partial curve, poor fit]. Also, under setting [2], the AC50 is 6.51 µM [falling, single point].

`COC(=O)c1c(C)oc(C)c1S(=O)(=O)NCc1ccc(Cl)cc1`: the cell number change turned out to be 40.5%. The AC50 under setting [1] was 20.6 µM [rising, single point].

Consider `Cc1ccc2cc(C)c3nnc(SCC(=O)N4CCN(C(=O)c5ccco5)CC4)n3c2c1`, for which the cell number change was found to be 16.6%.

As to `Cc1cc(NC(=O)CN2C(=O)NC(CC(C)C)C2=O)ccc1Br` (stereo unspecified), the cell number change was -5.27%. Also, under setting [2], the AC50 was 29.1 µM [falling, single point].

On to `Cc1ccc(C(=O)NCc2cccnc2)cc1S(=O)(=O)N1CCCCCC1`, for which the cell number change stood at 2.29%. In addition, the AC50 under setting [2] was 0.00411 µM [rising, full curve, poor fit].

As for `O=C(Nc1ccccc1)c1cccc(-c2nnc(-c3ccccc3)o2)c1`, the AC50 under setting [1] is 0.58 µM [rising, single point].

`CCn1c(SCC(=O)c2cc(OC)ccc2OC)nnc1C(C)C`: the AC50 under setting [2] is 29.1 µM [falling, single point].

Regarding `CCCCCCCCNC(=O)/C(C#N)=C/c1ccccc1[N+](=O)[O-]`, the cell number change was -67.6%. In addition, the AC50 under setting [1] is 10.3 µM [falling, partial curve, poor fit]. Besides, under setting [2], the concentration at half-maximal activity (AC50) is 5.8 µM [falling, partial curve].

Take `O=C(CNC(=O)C1CCCCC1)NC1=NCCS1`: the cell number change was -3.43%. Moreover, the AC50 under setting [2] was 2.91 µM [rising, single point].

As for `CN(C)Cc1c(C(=O)N/N=C/c2cccs2)nnn1-c1nonc1N`, the cell number change is -4.27%. Besides, the AC50 under setting [2] is 32.6 µM [rising, single point].

Regarding `Cc1ccc(C)c(S(=O)(=O)Nc2cc(SCC(=O)O)c(O)c3ccccc23)c1`, the cell number change was -46.2%. In addition, the AC50 under setting [1] is 1.84 µM [falling, full curve]. For the same compound, the half-maximal activity concentration (AC50) under setting [2] is 3.66 µM [rising, full curve].

As to `CCOC(=O)c1cc(CC)sc1/N=C/C1C(=O)CCCC1=O`, under setting [2], the AC50 is 0.0103 µM [rising, full curve, poor fit].

In the case of `COCCOC1CCN(C(=O)C2CCC(=O)N(CCc3cccc(F)c3)C2)CC1` (stereo unspecified), the cell number change is 5.34%.

Regarding `COc1ccccc1Nc1nc(N)nc(CN2CCC(C)CC2)n1`, the cell number change turned out to be 28.8%. Further, the AC50 under setting [2] was 0.00517 µM [rising, full curve, poor fit].

For `Cn1cc(S(=O)(=O)Nc2ccc(F)c(Cl)c2)c(=O)n(C)c1=O`, the cell number change came to 12.1%. Further, the concentration at half-maximal activity (AC50) under setting [1] was 0.82 µM [rising, full curve, poor fit]. Also, under setting [2], the AC50 was 0.58 µM [rising, single point].

On to `CC(=O)NC(CC(=O)NCC(=O)Nc1ccc(F)c(F)c1)c1ccccc1` (stereo unspecified), for which the cell number change was 18.1%. Also, the AC50 under setting [2] was 0.206 µM [falling, full curve, poor fit].

Take `COC(=O)/C(=C(/F)SCC(C)=O)C(F)(F)F`: the cell number change was -1.26%. Also, the AC50 under setting [2] is 16.4 µM [falling, partial curve].

In the case of `Clc1ccc(/C=N/c2c(-c3ccco3)nc3ccccn23)cc1`, the cell number change was found to be 71.9%. Further, the AC50 under setting [1] is 11.6 µM [rising, partial curve].

As for `O=C(CCc1ccc(S(=O)(=O)N2CCOCC2)cc1)N/N=C/c1cccc(O)c1`, the cell number change is 2.07%.

For `Cc1cccc(C)c1OCCCCc1c(C)n[nH]c1C`, the cell number change was -58.5%. Besides, under setting [1], the AC50 is 32.6 µM [falling, single point]. Also, the AC50 under setting [2] is 29.1 µM [falling, single point].

On to `CC(/C=C/c1ccc(N(C)C)cc1)=N\N=C1\NC(=O)CC(C(=O)Nc2ccccc2)S1` (stereo unspecified), for which the cell number change was determined as 7.71%. Also, the AC50 under setting [2] is 32.6 µM [falling, single point].

With `COc1ccc(-c2[nH]c(-c3ccc(SC)cc3)nc2SCC(=O)Nc2nccs2)cc1`, the cell number change was -41.4%. For the same compound, the AC50 under setting [1] is 4.61 µM [falling, full curve, poor fit].

Consider `Cc1cc(C)c(S(=O)(=O)N2CCCC(C(=O)N3CCOCC3)C2)c(C)c1` (stereo unspecified), for which the cell number change was found to be 15.8%. In addition, the AC50 under setting [1] was 3.26 µM [rising, single point]. Besides, the AC50 under setting [2] was 6.51 µM [rising, single point].

Regarding `N/C(=N\OC(=O)COc1ccc(Br)cc1Cl)c1ccccn1`, the cell number change turned out to be 16.5%.

Turning to `Cc1ccccc1NS(=O)(=O)c1ccc(C(=O)N2CCN(S(=O)(=O)c3ccccc3)CC2)cc1`, under setting [2], the AC50 is 9.2 µM [falling, partial curve, poor fit].

As to `COc1cc([N+](=O)[O-])cc(/C=N/NC(=O)c2cc(C)nc3ccccc23)c1O`, the cell number change worked out at 31.6%.

Consider `Cn1ncc(Br)c1C(=O)NC1CCCCCCC1`, for which the cell number change was -19.1%.

As to `CCCC1OC23CCCCC2C(C#N)(C#N)C1(C#N)C(=N)O3` (stereo unspecified), the cell number change was found to be 92.3%. For the same compound, the AC50 under setting [1] was 29.1 µM [rising, single point]. For the same compound, the AC50 under setting [2] was 29.1 µM [rising, single point].

For `COCc1cc(CN2CCCC(C(=O)Nc3ccc(-c4ccco4)cc3)C2)ccc1OC` (stereo unspecified), the cell number change is 26.7%.

As for `Cc1noc(C)c1C(=O)OCC(=O)Nc1ccccc1C(=O)NC(C)c1ccccc1` (stereo unspecified), the cell number change worked out at 17%. Further, the AC50 under setting [2] is 2.31 µM [rising, full curve, poor fit].

With `Cc1c(N=C2SCC(=O)N2c2c(C)n(C)n(-c3ccccc3)c2=O)c(=O)n(-c2ccccc2)n1C`, the cell number change is -11.3%. Further, the AC50 under setting [1] was 6.51 µM [falling, single point]. For the same compound, the AC50 under setting [2] was 3.26 µM [falling, single point].

Regarding `CC(C)c1ccc(S(=O)(=O)N2CCN(C(=O)Cc3ccsc3)CC2)cc1`, the cell number change was -19.3%. In addition, the AC50 under setting [1] is 0.164 µM [falling, full curve, poor fit].

As to `CC(C(=O)Nc1ccc(C#N)cc1)N(C)Cc1cccs1` (stereo unspecified), the cell number change was -33.3%. The AC50 under setting [1] is 0.82 µM [falling, full curve, poor fit].

Consider `O=[N+]([O-])c1ccc(N2CCCCC2)nc1N1CCCCC1`, for which the cell number change came out at 19.3%. Moreover, the concentration at half-maximal activity (AC50) under setting [2] is 14.6 µM [rising, partial curve, poor fit].

With `COc1cc(C(=O)NCc2nnc(SCC(=O)NCc3ccccc3)o2)cc(OC)c1OC`, the cell number change turned out to be 6.13%. In addition, under setting [2], the AC50 is 0.164 µM [falling, full curve, poor fit].

Regarding `Cc1cc(C)cc(NC(=O)CSc2nc(=O)n(CCCN3CCOCC3)c3c2CCCC3)c1`, the cell number change turned out to be 228%. The AC50 under setting [1] was 20.6 µM [rising, partial curve].
